Assay results taken from patent publication US12729225B2, “Non-canonical SWI/SNF complex and uses thereof” (Dana-Farber Cancer Institute, Inc., priority 2018, dated 2026).

B1: SNRNP40 (protein)
chain: MIEQQKRKGPELPLVPVKRQRHELLLGAGSGPGAGQQQATPGALLQAGPPRCSSLQAPIMLLSGHEGEVYCCKFHPNGSTLASAGFDRLILLWNVYGDCDNYATLKGHSGAVMELHYNTDGSMLFSASTDKTVAVWDSETGERVKRLKGHTSFVNSCYPARRGPQLVCTGSDDGTVKLWDIRKKAAIQTFQNTYQVLAVTFNDTSDQIISGGIDNDIKVWDLRQNKLTYTMRGHADSVTGLSLSSEGSYLLSNAMDNTVRVWDVRPFAPKERCVKIFQGNVHNFEKNLLRCSWSPDGSKIAAGSADRFVYVWDTTSRRILYKLPGHAGSINEVAFHPDEPIIISASSDKRLYMGEIQ
B2: NCLN (protein, UniProt Q969V3 43-563, looked up)
BOS complex subunit NCLN: AHEFTVYRMQQYDLQGQPYGTRNAVLNTEARTMAAEVLSRRCVLMRLLDFSYEQYQKALRQSAGAVVIILPRAMAAVPQDVVRQFMEIEPEMLAMETAVPVYFAVEDEALLSIYKQTQAASASQGSASAAEVLLRTATANGFQMVTSGVQSKAVSDWLIASVEGRLTGLGGEDLPTIVIVAHYDAFGVAPWLSLGADSNGSGVSVLLELARLFSRLYTYKRTHAAYNLLFFASGGGKFNYQGTKRWLEDNLDHTDSSLLQDNVAFVLCLDTVGRGSSLHLHVSKPPREGTLQHAFLRELETVAAHQFPEVRFSMVHKRINLAEDVLAWEHERFAIRRLPAFTLSHLESHRDGQRSSIMDVRSRVDSKTLTRNTRIIAEALTRVIYNLTEKGTPPDMPVFTEQMQIQQEQLDSVMDWLTNQPRAAQLVDKDSTFLSTLEHHLSRYLKDVKQHHVKADKRDPEFVFYDQLKQVMNAYRVKPAVFDLLLAVGIAAYLGMAYVAVQHFSLLYKTVQRLLVKAKTQ
B3: METTL17 (protein, UniProt Q9H7H0 20-456, looked up)
Ribosome assembly protein …: VAPQARALAALVPGVTQVDNKSGFLQKRPHRQHPGILKLPHVRLPQALANGAQLLLLGSAGPTMENQVQTLTSYLWSRHLPVEPEELQRRARHLEKKFLENPDLSQTEEKLRGAVLHALRKTTYHWQELSYTEGLSLVYMAARLDGGFAAVSRAFHEIRARNPAFQPQTLMDFGSGTGSVTWAAHSIWGQSLREYMCVDRSAAMLVLAEKLLKGGSESGEPYIPGVFFRQFLPVSPKVQFDVVVSAFSLSELPSKADRTEVVQTLWRKTGHFLVLVENGTKAGHSLLMDARDLVLKGKEKSPLDPRPGFVFAPCPHELPCPQLTNLACSFSQAYHPIPFSWNKKPKEEKFSMVILARGSPEEAHRWPRITQPVLKRPRHVHCHLCCPDGHMQHAVLTARRHGRDLYRCARVSSWGDLLPVLTPSAFPPSTAQDPSES
B4: RFC1 (protein, UniProt P35251 1-1148, looked up)
Replication factor C subunit 1: MDIRKFFGVIPSGKKLVSETVKKNEKTKSDEETLKAKKGIKEIKVNSSRKEDDFKQKQPSKKKRIIYDSDSESEETLQVKNAKKPPEKLPVSSKPGKISRQDPVTYISETDEEDDFMCKKAASKSKENGRSTNSHLGTSNMKKNEENTKTKNKPLSPIKLTPTSVLDYFGTGSVQRSNKKMVASKRKELSQNTDESGLNDEAIAKQLQLDEDAELERQLHEDEEFARTLAMLDEEPKTKKARKDTEAGETFSSVQANLSKAEKHKYPHKVKTAQVSDERKSYSPRKQSKYESSKESQQHSKSSADKIGEVSSPKASSKLAIMKRKEESSYKEIEPVASKRKENAIKLKGETKTPKKTKSSPAKKESVSPEDSEKKRTNYQAYRSYLNREGPKALGSKEIPKGAENCLEGLIFVITGVLESIERDEAKSLIERYGGKVTGNVSKKTNYLVMGRDSGQSKSDKAAALGTKIIDEDGLLNLIRTMPGKKSKYEIAVETEMKKESKLERTPQKNVQGKRKISPSKKESESKKSRPTSKRDSLAKTIKKETDVFWKSLDFKEQVAEETSGDSKARNLADDSSENKVENLLWVDKYKPTSLKTIIGQQGDQSCANKLLRWLRNWQKSSSEDKKHAAKFGKFSGKDDGSSFKAALLSGPPGVGKTTTASLVCQELGYSYVELNASDTRSKSSLKAIVAESLNNTSIKGFYSNGAASSVSTKHALIMDEVDGMAGNEDRGGIQELIGLIKHTKIPIICMCNDRNHPKIRSLVHYCFDLRFQRPRVEQIKGAMMSIAFKEGLKIPPPAMNEIILGANQDIRQVLHNLSMWCARSKALTYDQAKADSHRAKKDIKMGPFDVARKVFAAGEETAHMSLVDKSDLFFHDYSIAPLFVQENYIHVKPVAAGGDMKKHLMLLSRAADSICDGDLVDSQIRSKQNWSLLPAQAIYASVLPGELMRGYMTQFPTFPSWLGKHSSTGKHDRIVQDLALHMSLRTYSSKRTVNMDYLSLLRDALVQPLTSQGVDGVQDVVALMDTYYLMKEDFENIMEISSWGGKPSPFSKLDPKVKAAFTRAYNKEAHLTPYSLQAIKASRHSTSPSLDSEYNEELNEDDSQSDEKDQDAIETDAMIKKKTKSSKPSKPEKDKEPRKGKGKSSKK
B5: ATP5J2 (protein, UniProt P56134 2-94, looked up)
ATP synthase F(0) complex …: ASVGECPAPVPVKDKKLLEVKLGELPSWILMRDFSPSGIFGAFQRGYYRYYNKYINVKKGSISGITMVLACYVLFSYSFSYKHLKHERLRKYH
B6: ACAD9 (protein, UniProt Q9H845 38-621, looked up)
Complex I assembly factor …: AFAKELFLGKIKKKEVFPFPEVSQDELNEINQFLGPVEKFFTEEVDSRKIDQEGKIPDETLEKLKSLGLFGLQVPEEYGGLGFSNTMYSRLGEIISMDGSITVTLAAHQAIGLKGIILAGTEEQKAKYLPKLASGEHIAAFCLTEPASGSDAASIRSRATLSEDKKHYILNGSKVWITNGGLANIFTVFAKTEVVDSDGSVKDKITAFIVERDFGGVTNGKPEDKLGIRGSNTCEVHFENTKIPVENILGEVGDGFKVAMNILNSGRFSMGSVVAGLLKRLIEMTAEYACTRKQFNKRLSEFGLIQEKFALMAQKAYVMESMTYLTAGMLDQPGFPDCSIEAAMVKVFSSEAAWQCVSEALQILGGLGYTRDYPYERILRDTRILLIFEGTNEILRMYIALTGLQHAGRILTTRIHELKQAKVSTVMDTVGRRLRDSLGRTVDLGLTGNHGVVHPSLADSANKFEENTYCFGRTVETLLLRFGKTIMEEQLVLKRVANILINLYGMTAVLSRASRSIRIGLRNHDHEVLLANTFCVEAYLQNLFSLSQLDKYAPENLDEQIKKVSQQILEKRAYICAHPLDRTC
B7: FAF2 (protein, UniProt Q96CS3 2-445, looked up)
FAS-associated factor 2: AAPEERDLTQEQTEKLLQFQDLTGIESMDQCRHTLEQHNWNIEAAVQDRLNEQEGVPSVFNPPPSRPLQVNTADHRIYSYVVSRPQPRGLLGWGYYLIMLPFRFTYYTILDIFRFALRFIRPDPRSRVTDPVGDIVSFMHSFEEKYGRAHPVFYQGTYSQALNDAKRELRFLLVYLHGDDHQDSDEFCRNTLCAPEVISLINTRMLFWACSTNKPEGYRVSQALRENTYPFLAMIMLKDRRMTVVGRLEGLIQPDDLINQLTFIMDANQTYLVSERLEREERNQTQVLRQQQDEAYLASLRADQEKERKKREERERKRRKEEEVQQQKLAEERRRQNLQEEKERKLECLPPEPSPDDPESVKIIFKLPNDSRVERRFHFSQSLTVIHDFLFSLKESPEKFQIEANFPRRVLPCIPSEEWPNPPTLQEAGLSHTEVLFVQDLTDE
B8: COPA (protein, UniProt P53621 1-1224, looked up)
Coatomer subunit alpha: MLTKFETKSARVKGLSFHPKRPWILTSLHNGVIQLWDYRMCTLIDKFDEHDGPVRGIDFHKQQPLFVSGGDDYKIKVWNYKLRRCLFTLLGHLDYIRTTFFHHEYPWILSASDDQTIRVWNWQSRTCVCVLTGHNHYVMCAQFHPTEDLVVSASLDQTVRVWDISGLRKKNLSPGAVESDVRGITGVDLFGTTDAVVKHVLEGHDRGVNWAAFHPTMPLIVSGADDRQVKIWRMNESKAWEVDTCRGHYNNVSCAVFHPRQELILSNSEDKSIRVWDMSKRTGVQTFRRDHDRFWVLAAHPNLNLFAAGHDGGMIVFKLERERPAYAVHGNMLHYVKDRFLRQLDFNSSKDVAVMQLRSGSKFPVFNMSYNPAENAVLLCTRASNLENSTYDLYTIPKDADSQNPDAPEGKRSSGLTAVWVARNRFAVLDRMHSLLIKNLKNEITKKVQVPNCDEIFYAGTGNLLLRDADSITLFDVQQKRTLASVKISKVKYVIWSADMSHVALLAKHAIVICNRKLDALCNIHENIRVKSGAWDESGVFIYTTSNHIKYAVTTGDHGIIRTLDLPIYVTRVKGNNVYCLDRECRPRVLTIDPTEFKFKLALINRKYDEVLHMVRNAKLVGQSIIAYLQKKGYPEVALHFVKDEKTRFSLALECGNIEIALEAAKALDDKNCWEKLGEVALLQGNHQIVEMCYQRTKNFDKLSFLYLITGNLEKLRKMMKIAEIRKDMSGHYQNALYLGDVSERVRILKNCGQKSLAYLTAATHGLDEEAESLKETFDPEKETIPDIDPNAKLLQPPAPIMPLDTNWPLLTVSKGFFEGTIASKGKGGALAADIDIDTVGTEGWGEDAELQLDEDGFVEATEGLGDDALGKGQEEGGGWDVEEDLELPPELDISPGAAGGAEDGFFVPPTKGTSPTQIWCNNSQLPVDHILAGSFETAMRLLHDQVGVIQFGPYKQLFLQTYARGRTTYQALPCLPSMYGYPNRNWKDAGLKNGVPAVGLKLNDLIQRLQLCYQLTTVGKFEEAVEKFRSILLSVPLLVVDNKQEIAEAQQLITICREYIVGLSVETERKKLPKETLEQQKRICEMAAYFTHSNLQPVHMILVLRTALNLFFKLKNFKTAATFARRLLELGPKPEVAQQTRKILSACEKNPTDAYQLNYDMHNPFDICAASYRPIYRGKPVEKCPLSGACYSPEFKGQICRVTTVTEIGKDVIGLRISPLQFR
B9: RAB10 (protein, UniProt P61026 1-200, looked up)
Ras-related protein Rab-10: MAKKTYDLLFKLLLIGDSGVGKTCVLFRFSDDAFNTTFISTIGIDFKIKTVELQGKKIKLQIWDTAGQERFHTITTSYYRGAMGIMLVYDITNGKSFENISKWLRNIDEHANEDVERMLLGNKCDMDDKRVVPKGKGEQIAREHGIRFFETSAKANINIEKAFLTLAEDILRKTPVKEPNSENVDISSGGGVTGWKSKCC
B10: AGPS (protein, UniProt O00116 59-658, looked up)
Alkyldihydroxyacetonephosphate …: KARRAASAATAAPTATPAAQESGTIPKKRQEVMKWNGWGYNDSKFIFNKKGQIELTGKRYPLSGMGLPTFKEWIQNTLGVNVEHKTTSKASLNPSDTPPSVVNEDFLHDLKETNISYSQEADDRVFRAHGHCLHEIFLLREGMFERIPDIVLWPTCHDDVVKIVNLACKYNLCIIPIGGGTSVSYGLMCPADETRTIISLDTSQMNRILWVDENNLTAHVEAGITGQELERQLKESGYCTGHEPDSLEFSTVGGWVSTRASGMKKNIYGNIEDLVVHIKMVTPRGIIEKSCQGPRMSTGPDIHHFIMGSEGTLGVITEATIKIRPVPEYQKYGSVAFPNFEQGVACLREIAKQRCAPASIRLMDNKQFQFGHALKPQVSSIFTSFLDGLKKFYITKFKGFDPNQLSVATLLFEGDREKVLQHEKQVYDIAAKFGGLAAGEDNGQRGYLLTYVIAYIRDLALEYYVLGESFETSAPWDRVVDLCRNVKERITRECKEKGVQFAPFSTCRVTQTYDAGACIYFYFAFNYRGISDPLTVFEQTEAAAREEILANGGSLSHHHGVGKLRKQWLKESISDVGFGMLKSVKEYVDPNNIFGNRNLL

These molecules were tested on mSWI/SNF complexes (assay: mSWI/SNF complex purification with HA-tagged baits and mass spectrometry (peptide counts)). Details: 293_HA-BRD7 bait purification, mass spectrometry; total peptides per co-purified protein.
Design: species or system human

Total, 3:
B1, B2, B3, B4, B5, B6, B7, B8, B9, B10

Same assay, conditions: 293_HA-BRD7 bait purification, mass spectrometry; unique peptides per co-purified protein

Unique, 3:
B1, B2, B3, B4, B5, B6, B7, B8, B9, B10
